Test results: PMC7039973
No constants are given. Whether binding was seen depends on the method and setting. Binding seen in cells or lysates may run through a third protein. Some entries that bind do so weakly or less than the wild type.

Amino acid sequences for entries named in this document (tags omitted). Residues count along the entry.
UniProt P35579: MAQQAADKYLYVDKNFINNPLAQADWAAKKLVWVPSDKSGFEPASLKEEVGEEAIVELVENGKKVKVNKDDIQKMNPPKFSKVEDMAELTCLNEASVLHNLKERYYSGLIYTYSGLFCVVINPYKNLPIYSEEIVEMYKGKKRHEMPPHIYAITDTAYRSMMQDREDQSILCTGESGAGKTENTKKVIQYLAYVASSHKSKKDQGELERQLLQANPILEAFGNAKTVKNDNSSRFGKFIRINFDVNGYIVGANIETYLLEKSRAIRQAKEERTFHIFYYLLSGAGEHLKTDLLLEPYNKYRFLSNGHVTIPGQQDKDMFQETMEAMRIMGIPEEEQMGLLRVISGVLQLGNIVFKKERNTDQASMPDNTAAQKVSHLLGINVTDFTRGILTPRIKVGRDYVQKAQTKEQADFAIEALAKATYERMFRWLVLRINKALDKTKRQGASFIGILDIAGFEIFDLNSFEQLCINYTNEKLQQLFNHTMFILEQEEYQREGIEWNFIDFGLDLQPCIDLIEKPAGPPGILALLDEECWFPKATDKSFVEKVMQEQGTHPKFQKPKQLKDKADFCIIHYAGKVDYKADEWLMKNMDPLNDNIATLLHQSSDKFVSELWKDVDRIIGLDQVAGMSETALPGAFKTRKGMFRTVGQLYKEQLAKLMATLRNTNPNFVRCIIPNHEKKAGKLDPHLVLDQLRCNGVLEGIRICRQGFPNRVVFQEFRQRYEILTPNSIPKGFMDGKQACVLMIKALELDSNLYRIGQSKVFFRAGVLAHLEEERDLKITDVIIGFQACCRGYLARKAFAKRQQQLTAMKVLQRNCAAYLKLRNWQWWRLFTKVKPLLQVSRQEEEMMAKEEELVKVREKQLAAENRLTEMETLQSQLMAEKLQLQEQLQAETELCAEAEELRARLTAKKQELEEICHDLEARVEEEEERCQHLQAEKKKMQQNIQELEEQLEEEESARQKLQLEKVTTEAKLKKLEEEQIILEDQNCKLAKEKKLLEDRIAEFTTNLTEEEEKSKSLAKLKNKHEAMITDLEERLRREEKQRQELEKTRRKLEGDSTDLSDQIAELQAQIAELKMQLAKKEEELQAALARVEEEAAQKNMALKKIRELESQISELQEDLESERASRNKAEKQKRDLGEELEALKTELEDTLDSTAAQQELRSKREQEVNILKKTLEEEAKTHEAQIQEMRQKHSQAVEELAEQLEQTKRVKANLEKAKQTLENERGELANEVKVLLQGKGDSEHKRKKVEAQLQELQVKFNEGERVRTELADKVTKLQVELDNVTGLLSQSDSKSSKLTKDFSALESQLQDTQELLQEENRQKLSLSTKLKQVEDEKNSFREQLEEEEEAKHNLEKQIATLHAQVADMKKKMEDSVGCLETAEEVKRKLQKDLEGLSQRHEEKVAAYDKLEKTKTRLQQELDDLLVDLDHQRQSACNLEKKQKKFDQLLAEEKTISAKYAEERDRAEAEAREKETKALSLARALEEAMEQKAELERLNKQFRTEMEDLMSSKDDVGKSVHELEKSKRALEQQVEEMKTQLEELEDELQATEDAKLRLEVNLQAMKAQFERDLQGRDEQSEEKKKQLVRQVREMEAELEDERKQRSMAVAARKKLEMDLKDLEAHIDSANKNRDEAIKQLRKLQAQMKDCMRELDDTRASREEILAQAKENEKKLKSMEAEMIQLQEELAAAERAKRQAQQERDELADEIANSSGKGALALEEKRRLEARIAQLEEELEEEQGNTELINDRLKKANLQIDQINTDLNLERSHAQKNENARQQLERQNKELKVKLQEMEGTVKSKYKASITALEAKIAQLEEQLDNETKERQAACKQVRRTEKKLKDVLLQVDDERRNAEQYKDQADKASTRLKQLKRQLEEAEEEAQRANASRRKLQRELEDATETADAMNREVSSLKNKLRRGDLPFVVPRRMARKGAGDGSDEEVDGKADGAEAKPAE
UniProt P11021, residues 19-654: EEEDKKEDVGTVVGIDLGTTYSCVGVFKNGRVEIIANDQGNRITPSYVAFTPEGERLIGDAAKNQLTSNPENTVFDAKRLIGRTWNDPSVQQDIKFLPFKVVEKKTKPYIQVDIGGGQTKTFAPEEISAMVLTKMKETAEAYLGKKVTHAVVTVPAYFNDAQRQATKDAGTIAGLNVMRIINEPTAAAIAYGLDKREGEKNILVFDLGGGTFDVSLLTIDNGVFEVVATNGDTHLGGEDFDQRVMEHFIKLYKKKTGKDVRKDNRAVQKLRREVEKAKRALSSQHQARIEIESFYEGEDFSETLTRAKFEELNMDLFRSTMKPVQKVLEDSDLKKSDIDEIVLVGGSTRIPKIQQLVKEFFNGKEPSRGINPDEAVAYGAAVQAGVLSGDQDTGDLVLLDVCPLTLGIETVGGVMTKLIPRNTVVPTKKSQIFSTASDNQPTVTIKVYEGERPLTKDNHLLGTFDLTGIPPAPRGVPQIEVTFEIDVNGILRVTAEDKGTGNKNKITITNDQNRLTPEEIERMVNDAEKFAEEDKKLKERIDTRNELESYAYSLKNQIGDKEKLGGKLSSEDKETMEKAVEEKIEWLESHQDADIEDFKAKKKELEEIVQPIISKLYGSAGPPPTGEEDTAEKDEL
UniProt P08670: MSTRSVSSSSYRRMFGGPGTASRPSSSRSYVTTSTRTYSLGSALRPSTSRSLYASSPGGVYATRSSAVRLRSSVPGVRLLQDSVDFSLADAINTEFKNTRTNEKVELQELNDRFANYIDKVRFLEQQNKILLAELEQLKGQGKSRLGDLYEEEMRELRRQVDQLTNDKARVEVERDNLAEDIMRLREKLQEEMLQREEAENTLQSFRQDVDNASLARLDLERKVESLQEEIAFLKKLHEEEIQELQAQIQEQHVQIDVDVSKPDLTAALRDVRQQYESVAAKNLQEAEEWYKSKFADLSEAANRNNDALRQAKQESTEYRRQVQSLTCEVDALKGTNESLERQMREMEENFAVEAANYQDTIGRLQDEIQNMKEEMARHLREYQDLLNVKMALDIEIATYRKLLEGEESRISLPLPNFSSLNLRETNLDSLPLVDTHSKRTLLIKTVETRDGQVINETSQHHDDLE

What was measured:
[1] = target: T1, Protein S100-A16 (human (endogenous in HK-2)) (UniProt Q96FQ6); test: co-IP; HK-2 cells; Supplemental Fig. 2; cells and precipitating antibody not given
T1 sequence: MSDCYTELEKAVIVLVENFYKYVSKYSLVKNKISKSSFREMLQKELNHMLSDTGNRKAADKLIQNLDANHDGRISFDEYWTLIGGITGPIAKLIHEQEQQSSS

[2] = target: T2, Protein S100-A16, overexpressed from lentivirus (human) (UniProt Q96FQ6); test: co-IP; lysates of wild type or S100A16-overexpressing HK-2 cells in NP40 lysis buffer (10 mM Tris-HCl pH 7.4, 10 mM NaCl); 0.5 mg protein with anti-S100A16 antibody overnight at 4 °C, protein A beads; blot with anti-Myh9; also after pre-transfection of the cells with anti-Myh9 antibody (Fig. 6a, precipitating antibody not told there)
T2 sequence: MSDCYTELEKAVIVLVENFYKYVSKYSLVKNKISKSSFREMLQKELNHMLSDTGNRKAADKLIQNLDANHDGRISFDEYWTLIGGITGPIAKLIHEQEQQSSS

[3] = target: T1, Protein S100-A16 (human (endogenous in HK-2)); test: as above
[4] = target: Myosin-9 (human (endogenous in HK-2)) (UniProt P35579); test: co-IP; lysates of lenti-scrambled or lenti-S100A16 HK-2 cells in NP40 lysis buffer; IP with anti-Myh9 antibody, protein A beads; blot with anti-S100A16

Molecule: 78 kDa glucose-regulated protein (from UniProt P11021 19-654)
- binding [1]: binds

Molecule: Myosin-9 (from UniProt P35579 1-1960)
- binding [2]: binds
- binding [3]: binds

Molecule: Vimentin (from UniProt P08670 1-466)
- binding [1]: binds

B1: Protein S100-A16 (protein, UniProt Q96FQ6 1-103)
chain: MSDCYTELEKAVIVLVENFYKYVSKYSLVKNKISKSSFREMLQKELNHMLSDTGNRKAADKLIQNLDANHDGRISFDEYWTLIGGITGPIAKLIHEQEQQSSS
- binding [4]: binds

B2: Protein S100-A16, overexpressed from lentivirus (protein, UniProt Q96FQ6 1-103)
chain: MSDCYTELEKAVIVLVENFYKYVSKYSLVKNKISKSSFREMLQKELNHMLSDTGNRKAADKLIQNLDANHDGRISFDEYWTLIGGITGPIAKLIHEQEQQSSS
- binding [4]: binds
